Test results from article PMC5789818.
Results are given in words; binding and its absence hold for the method and conditions named. In cells and extracts the contact can be indirect. A yes stands for co-enrichment or nearness to the bait. Other partners may have been found. Blank lines part the entries; values can stand above or below the binder they belong to.

Protein sequences, listed by entry. Tags and fused reporters are not part of them.
UniProt Q14974: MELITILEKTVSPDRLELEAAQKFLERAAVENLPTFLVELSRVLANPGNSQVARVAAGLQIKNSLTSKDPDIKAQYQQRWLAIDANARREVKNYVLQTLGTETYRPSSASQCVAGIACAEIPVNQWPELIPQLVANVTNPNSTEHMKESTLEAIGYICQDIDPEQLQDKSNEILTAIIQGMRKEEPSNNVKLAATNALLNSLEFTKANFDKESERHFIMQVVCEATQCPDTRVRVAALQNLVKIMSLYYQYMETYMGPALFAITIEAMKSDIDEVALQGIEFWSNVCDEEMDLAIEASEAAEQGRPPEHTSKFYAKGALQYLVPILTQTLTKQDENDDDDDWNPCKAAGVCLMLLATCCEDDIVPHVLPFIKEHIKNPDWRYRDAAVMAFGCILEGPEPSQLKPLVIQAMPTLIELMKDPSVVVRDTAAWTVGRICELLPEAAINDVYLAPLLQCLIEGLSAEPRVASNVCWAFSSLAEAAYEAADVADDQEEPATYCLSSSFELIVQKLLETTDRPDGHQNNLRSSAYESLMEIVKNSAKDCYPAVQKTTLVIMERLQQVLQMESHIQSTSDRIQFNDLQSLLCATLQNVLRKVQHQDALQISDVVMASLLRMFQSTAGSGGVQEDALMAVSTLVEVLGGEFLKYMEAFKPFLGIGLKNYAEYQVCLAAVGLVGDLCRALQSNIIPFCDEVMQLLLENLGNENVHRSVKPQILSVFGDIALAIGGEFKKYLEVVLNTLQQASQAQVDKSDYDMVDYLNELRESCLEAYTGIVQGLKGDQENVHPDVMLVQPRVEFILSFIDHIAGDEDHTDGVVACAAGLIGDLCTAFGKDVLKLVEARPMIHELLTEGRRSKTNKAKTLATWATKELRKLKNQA

Target: Human karyopherin beta-1/importin beta-1 (human (endogenous in HeLa)) (UniProt Q14974)
Assay: affinity purification with mass spectrometry; importin beta-1 captured with antibody Sigma I2534 cross-linked to Protein G-Sepharose from extract of RO3306-synchronized and released mitotic HeLa cells; lysis buffer 50 mM Tris HCl pH 8.0, 150 mM NaCl, 1% NP40; overnight at 4 °C; LTQ-Orbitrap …; mouse IgG as control

B3: catalase (protein, UniProt P04040 1-527)
chain: MADSRDPASDQMQHWKEQRAAQKADVLTTGAGNPVGDKLNVITVGPRGPLLVQDVVFTDEMAHFDRERIPERVVHAKGAGAFGYFEVTHDITKYSKAKVFEHIGKKTPIAVRFSTVAGESGSADTVRDPRGFAVKFYTEDGNWDLVGNNTPIFFIRDPILFPSFIHSQKRNPQTHLKDPDMVWDFWSLRPESLHQVSFLFSDRGIPDGHRHMNGYGSHTFKLVNANGEAVYCKFHYKTDQGIKNLSVEDAARLSQEDPDYGIRDLFNAIATGKYPSWTFYIQVMTFNQAETFPFNPFDLTKVWPHKDYPLIPVGKLVLNRNPVNYFAEVEQIAFDPSNMPPGIEASPDKMLQGRLFAYPDTHRHRLGPNYLHIPVNCPYRARVANYQRDGPMCMQDNQGGAPNYYPNSFGAPEQQPSALEHSIQYSGEVRRFNTANDDNVTQVRAFYVNVLNEEQRKRLCENIAGHLKDAQIFIQKKAVKNFTEVHPDYGSHIQALLDKYNAEKPKNAIHTFVQSGSHLAAREKANL
- binding: binds

B4: Peroxiredoxin-1 (protein, UniProt Q06830 1-199)
chain: MSSGNAKIGHPAPNFKATAVMPDGQFKDISLSDYKGKYVVFFFYPLDFTFVCPTEIIAFSDRAEEFKKLNCQVIGASVDSHFCHLAWVNTPKKQGGLGPMNIPLVSDPKRTIAQDYGVLKADEGISFRGLFIIDDKGILRQITVNDLPVGRSVDETLRLVQAFQFTDKHGEVCPAGWKPGSDTIKPDVQKSKEYFSKQK
- binding: binds

Next, values leading:

- binding: binds
B1: RNA-binding protein 14 (protein, UniProt Q96PK6 1-669)
chain: MKIFVGNVDGADTTPEELAALFAPYGTVMSCAVMKQFAFVHMRENAGALRAIEALHGHELRPGRALVVEMSRPRPLNTWKIFVGNVSAACTSQELRSLFERRGRVIECDVVKDYAFVHMEKEADAKAAIAQLNGKEVKGKRINVELSTKGQKKGPGLAVQSGDKTKKPGAGDTAFPGTGGFSATFDYQQAFGNSTGGFDGQARQPTPPFFGRDRSPLRRSPPRASYVAPLTAQPATYRAQPSVSLGAAYRAQPSASLGVGYRTQPMTAQAASYRAQPSVSLGAPYRGQLASPSSQSAAASSLGPYGGAQPSASALSSYGGQAAAASSLNSYGAQGSSLASYGNQPSSYGAQAASSYGVRAAASSYNTQGAASSLGSYGAQAASYGAQSAASSLAYGAQAASYNAQPSASYNAQSAPYAAQQAASYSSQPAAYVAQPATAAAYASQPAAYAAQATTPMAGSYGAQPVVQTQLNSYGAQASMGLSGSYGAQSAAAATGSYGAAAAYGAQPSATLAAPYRTQSSASLAASYAAQQHPQAAASYRGQPGNAYDGAGQPSAAYLSMSQGAVANANSTPPPYERTRLSPPRASYDDPYKKAVAMSKRYGSDRRLAELSDYRRLSESQLSFRRSPTKSSLDYRRLPDAHSDYARYSGSYNDYLRAAQMHSGYQRRM

- binding: binds
B2: Nucleolar spindle-associated protein 1 (protein, UniProt Q9BXS6 1-441)
chain: MIIPSLEELDSLKYSDLQNLAKSLGLRANLRATKLLKALKGYIKHEARKGNENQDESQTSASSCDETEIQISNQEEAERQPLGHVTKTRRRCKTVRVDPDSQQNHSEIKISNPTEFQNHEKQESQDLRATAKVPSPPDEHQEAENAVSSGNRDSKVPSEGKKSLYTDESSKPGKNKRTAITTPNFKKLHEAHFKEMESIDQYIERKKKHFEEHNSMNELKQQPINKGGVRTPVPPRGRLSVASTPISQRRSQGRSCGPASQSTLGLKGSLKRSAISAAKTGVRFSAATKDNEHKRSLTKTPARKSAHVTVSGGTPKGEAVLGTHKLKTITGNSAAVITPFKLTTEATQTPVSNKKPVFDLKASLSRPLNYEPHKGKLKPWGQSKENNYLNQHVNRINFYKKTYKQPHLQTKEEQRKKREQERKEKKAKVLGMRRGLILAED
